From patent US6462039B1, “Fungicidal benzoheterocyclyloxime” (Bayer Aktiengesellschaft, priority 1998, dated 2002)
Some results were stated once for a whole list of compounds, not compound by compound.

How the values were obtained:
Sphaerotheca fuliginea = experiment: Sphaerotheca test (cucumber)/protective; type: in vivo; settings: protective, application rate 100 g/ha, evaluation 10 days after inoculation
Plasmopara viticola = experiment: Plasmopara test (grapevine)/protective; type: in vivo; settings: protective, application rate 100 g/ha, evaluation 6 days after inoculation

## CO/N=C(/C1=NOCCO1)c1ccccc1CO/N=C(\C)c1nn(C)c2ccccc12 [Example 1, O-{2-[(5,6-dihydro-[1,4,2]dioxazin-3-yl)-methoxyiminomethyl]-benzyl}1-(1-methyl-1H-indazol-3-yl)-ethanone-oxime]
Sphaerotheca fuliginea
  efficacy: > 90%
Plasmopara viticola
  efficacy: > 85%
